Data as given in US20030100069A1 (Human Genome Sciences, published 2003).
Results are given in words; binding and its absence hold for the method and conditions named. Binding seen in cells or lysates may run through a third protein. Some binding calls cover weakened binding; strength is not graded here. Tags and fused reporters may be left off the sequences shown.

Target: T1, F-TR8-615 (FLAG epitope-tagged TR8, residues 33-615 of FIGS. 1A-C) (human) (UniProt Q9Y6Q6)
T1 sequence: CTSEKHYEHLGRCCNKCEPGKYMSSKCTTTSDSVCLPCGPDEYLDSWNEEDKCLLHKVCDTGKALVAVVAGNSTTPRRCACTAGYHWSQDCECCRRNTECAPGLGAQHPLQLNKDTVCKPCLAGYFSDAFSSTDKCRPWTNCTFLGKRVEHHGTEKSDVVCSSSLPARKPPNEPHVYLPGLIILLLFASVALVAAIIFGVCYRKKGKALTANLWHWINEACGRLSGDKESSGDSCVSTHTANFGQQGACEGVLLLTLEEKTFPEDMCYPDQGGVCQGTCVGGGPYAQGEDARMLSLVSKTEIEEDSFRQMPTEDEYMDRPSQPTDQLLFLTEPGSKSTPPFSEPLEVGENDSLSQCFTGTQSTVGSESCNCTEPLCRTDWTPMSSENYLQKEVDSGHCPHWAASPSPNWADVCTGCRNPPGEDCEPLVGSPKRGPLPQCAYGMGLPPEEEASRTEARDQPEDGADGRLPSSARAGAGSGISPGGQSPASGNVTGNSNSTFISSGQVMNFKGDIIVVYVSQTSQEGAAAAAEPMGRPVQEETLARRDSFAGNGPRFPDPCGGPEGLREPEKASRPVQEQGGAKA
Test: anti-FLAG co-immunoprecipitation from HeLa and 293 lysates, anti-TRAF2 western blot

binding: binds
B1: endogenous TRAF2 (of HeLa and 293 cells) (protein, human, UniProt Q12933 2-501, looked up)
chain: AAASVTPPGSLELLQPGFSKTLLGTKLEAKYLCSACRNVLRRPFQAQCGHRYCSFCLASILSSGPQNCAACVHEGIYEEGISILESSSAFPDNAARREVESLPAVCPSDGCTWKGTLKEYESCHEGRCPLMLTECPACKGLVRLGEKERHLEHECPERSLSCRHCRAPCCGADVKAHHEVCPKFPLTCDGCGKKKIPREKFQDHVKTCGKCRVPCRFHAIGCLETVEGEKQQEHEVQWLREHLAMLLSSVLEAKPLLGDQSHAGSELLQRCESLEKKTATFENIVCVLNREVERVAMTAEACSRQHRLDQDKIEALSSKVQQLERSIGLKDLAMADLEQKVLEMEASTYDGVFIWKISDFARKRQEAVAGRIPAIFSPAFYTSRYGYKMCLRIYLNGDGTGRGTHLSLFFVVMKGPNDALLRWPFNQKVTLMLLDQNNREHVIDAFRPDVTSSSFQRPVNDMNIASGCPLFCPVSKMEAKNSYVRDDAIFIKAIVDLTGL
